Literature values as cited in paper PMC11594716, “Rhodanine–Piperazine Hybrids as Potential VEGFR, EGFR, and HER2 Targeting Anti-Breast Cancer Agents” (International Journal of Molecular Sciences, 2024).

What was measured:
T47D cell line = settings: read-out: Values of IC50, T47D; reference drug; ref [38]; cited from earlier work
MDA-MB-231 cell line = settings: read-out: Values of IC50, MDA-MB-231; reference drug; ref [36]; cited from earlier work

Cc1ccc(NC(=O)c2ccc(CN3CCN(C)CC3)cc2)cc1Nc1nccc(-c2cccnc2)n1 [Imatinib]
IC50 (T47D cell line): 5.14 µM | IC50 (MDA-MB-231 cell line): 5.5 µM
